The full ranking holds about 33,000 sequences; the median of “E-score (-0.5 to 0.5)” is about -0.015, and the highest 2% start at about 0.3. The list shows a part of the results.
The sequences below were run against T1, Abf1 (UniProt P14164) (assay: PBM E-score (8-mer binding enrichment) (E-score (-0.5 to 0.5)); higher = stronger / more preferred TF binding). Conditions: protein concentration: 200 nM; construct: GST-full length.
T1 sequence: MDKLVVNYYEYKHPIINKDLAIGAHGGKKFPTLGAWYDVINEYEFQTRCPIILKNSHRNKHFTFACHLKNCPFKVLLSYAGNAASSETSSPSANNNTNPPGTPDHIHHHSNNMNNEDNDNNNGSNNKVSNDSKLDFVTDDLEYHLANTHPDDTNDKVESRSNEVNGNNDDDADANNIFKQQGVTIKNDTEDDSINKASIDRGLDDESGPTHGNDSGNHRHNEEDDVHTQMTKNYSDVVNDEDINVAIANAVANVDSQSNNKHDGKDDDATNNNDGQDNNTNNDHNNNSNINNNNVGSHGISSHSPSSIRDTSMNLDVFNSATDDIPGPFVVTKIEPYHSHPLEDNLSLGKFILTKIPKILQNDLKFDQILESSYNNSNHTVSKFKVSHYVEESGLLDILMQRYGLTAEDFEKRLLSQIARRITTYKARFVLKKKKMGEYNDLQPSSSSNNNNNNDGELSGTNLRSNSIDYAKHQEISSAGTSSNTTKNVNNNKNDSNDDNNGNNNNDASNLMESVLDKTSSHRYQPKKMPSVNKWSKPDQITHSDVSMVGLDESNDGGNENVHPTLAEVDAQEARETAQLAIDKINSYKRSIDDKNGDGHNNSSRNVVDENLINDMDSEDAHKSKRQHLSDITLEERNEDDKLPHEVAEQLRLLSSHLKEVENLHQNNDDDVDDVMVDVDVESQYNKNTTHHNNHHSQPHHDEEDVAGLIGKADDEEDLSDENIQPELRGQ
In short: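 Yeast transcription factors, full-length or as DNA-binding domains, were expressed with a GST tag using PURExpress in vitro transcription/translation. At about 100-200 nM they were applied to universal all-10-mer Agilent arrays, double-stranded by primer extension on fresh or once-stripped slides. Fluorescent anti-GST detected bound protein, and masliner normalised the scans. E-scores for ungapped eight-base words, pooled with reverse complements, came from the Universal PBM Analysis Suite.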

Sequence | PBM E-score
ACATCAAG | 0.0995
TGAACCAA | 0.0858
AAATCAAA | -0.0497
ATCGCTAC | 0.0926
AGTTACCG | 0.0874
ACGGTATG | 0.221
AGTTTGTC | 0.124
CATATTCG | 0.132
GTAGACAA | 0.162
GCGTATAA | 0.154
CTGCCAGC | -0.111
CCAGAGTA | -0.132
ACTGCAAG | -0.0535
TCTTAGAA | 0.0979
CACTTATA | 0.145
GGAGAGTA | 0.0316
ACTTTTGA | 0.0196
ACCATCGC | 0.128
ACACACTG | -0.0954
CGACTTCA | 0.0956
ACAATACG | 0.0997
CCCAACCG | -0.0379
AGGATTGG | -0.0614
AGAAGCAA | -0.0204
AACCGCTC | -0.0425

Taken from above.
ACTGCAAG | PBM E-score: -0.0535
CGACTTCA | PBM E-score: 0.0956
AGAAGCAA | PBM E-score: -0.0204

(listing goes on)

Sequence | PBM E-score
AGAGATCG | -0.0883
CACAAGTA | -0.117
CATGTAAG | -0.112
CTAAGGCC | -0.0311
AATCCACT | 0.0105
GCCTCGCA | -0.0633
ACGTGTCT | 0.194
CCGAGGAA | -0.149
AGACAACG | -0.0418
CGGATGAG | -0.0476
ACGGTAGA | 0.0612
AAAAGAGA | 0.126
AATTATAC | 0.175
ACCCATCG | -0.073
CCTACACA | -0.0995
ATGCCGGG | -0.169
ATGAGCAG | 0.0855
ACTTTGCG | -0.0468
ACCATCCG | -0.189
TCAGCTGA | 0.0671
AACATCCG | -0.0506
AACTTTGC | -0.125
CGAGTTTA | -0.0636
GTTGCTTA | 0.0506
CCAAATTA | 0.0834

Sequence | PBM E-score
AAACCGAA | -0.0436
CCCTAACG | 0.0374
CCACTTTA | -0.135
GCGTGTTA | 0.0149
CAATGACC | 0.0736
GCGTGATA | 0.353
CTGAGGTA | -0.0312
ACACATAT | 0.0254
CACTAAGG | 0.0132
ACAGTGCA | -0.0665
CACGGATA | 0.285
ACTTCATA | 0.0634
AATAGCCG | -0.0728
AAAGTGCC | -0.148
GCTATTGA | -0.0794
CATTGTTC | -0.0255
CGGATTGC | -0.00018
AGCGCAAC | -0.0267
CACTTCAC | -0.0873
TCAAACAA | -0.127
ATGTTCTG | 0.093
CCATTCCG | -0.126
AAGTCAAG | -0.206
CTTTGAAC | 0.00842
GCATTAGC | -0.038

Sequence | PBM E-score
CGGTCGAA | -0.0367
CAGTCTGA | 0.0216
ATTCTCCC | -0.0116
GGACCTCC | -0.116
AATAAGGC | -0.0637
GAGAAATA | 0.211
ATCCAGAA | 0.0109
ATCGCCTA | -0.00103
GGGTACCA | -0.168
ACAGAGTA | -0.0897
ATTAAGAA | 0.233
CCGTATAA | 0.418
CCGGGGGC | -0.286
ACAGAGCT | -0.118
CAGTCAGA | 0.00787
TACCTTAA | 0.105
GACTATAC | 0.111
ACGTTTTA | 0.208
CCCGTTTA | 0.233
CACCCCAA | 0.104
ACAAATAG | 0.157
AAATCGTT | 0.239
CCCTGCCA | -0.119
CCAGGCAG | -0.25
AATACACT | 0.0678

Sequence | PBM E-score
GCCTTTAC | -0.0351
GGTATTGA | 0.00996
AGTGCTTA | -0.167
CTTGCCAC | 0.0137
GTTGGGCA | 0.0171
AGTGGGCC | -0.21
GGTCTATA | -0.0673
CTCCTATC | 0.0243
ATGCGGGA | -0.12
ATTTTAAA | 0.182
GTGTAAAA | 0.161
AAGTAGGT | -0.0305
ACATCCTA | 0.0617
CAAGGCTA | 0.0473
CTCGCGCC | -0.141
AGCGACTA | 0.0386
GTGCGTGA | 0.172
AATGCGTA | 0.125
ACTCTTTA | 0.0112
CCAGCGAC | 0.0401
AAAAGACC | -0.234
CATGCAAC | 0.0643
AGTATAGG | -0.0938
CTAATAAC | 0.219
ATGCCGCC | -0.0724

Sequence | PBM E-score
CTTGCATC | -0.267
ATCGTCGG | 0.218
ACTCGTTC | 0.00912
ACTGCGTC | -0.114
CTTGCGAA | 0.145
ACGGAAAT | 0.276
GAACGCAA | 0.0976
ACCCAGGT | -0.268
AACAAAAA | 0.153
AGGTTAGG | -0.0491
GCGAGTCA | 0.0147
CGCAACTC | -0.115
TAGCACCA | -0.111
ATCACGCG | 0.373
AAGGGCCC | -0.291
AAAAGGTG | 0.0493
ATACTAGG | -0.161
ACCAGCGT | -0.275
CCCAATCG | -0.13
GATGATAA | 0.36
AACTGAGA | 0.0232
ATTCAAGG | -0.14
GGGCAACA | -0.173
CACAAGCA | -0.0969
AGAAGTTA | 0.0198

Sequence | PBM E-score
AGGCCCGG | -0.332
CCCCCGAG | -0.245
AGCGTACA | -0.121
ATCATGGG | 0.00172
ACAAGGCC | -0.152
CTTATACA | -0.11
AGCTGGAT | -0.18
CTGATTTA | 0.0199
GGTAAGAC | -0.0807
CTCAAATA | 0.00821
GAGTGTAC | -0.0427
GTAGCACA | -0.0223
AAACTGGT | -0.0367
CCTTGAAC | -0.0179
GACACTGA | -0.0199
ACCAATCC | -0.101
CGGACGGA | -0.0286
GGGGTTAA | -0.177
CACGTCCG | 0.00841
AGAGTTTA | -0.0329
AGAGACAT | 0.075
AGTGACGA | 0.422

Quoted at random: two records from the list
Sequence | PBM E-score
AGCGTACA | -0.121
AGAGACAT | 0.075

— the supplement of paper PMC3334620
